The list does not hold the whole screen: it gathers tests that were run many times, whatever their T/C, doses with no T/C, and many T/C values between a quarter and a half above the control. Further doses and runs are listed elsewhere. T/C is the treated group as % of the vehicle group. Some doses have a count of surviving animals in place of a T/C: the source files T/C as zero there, which appears to mark a toxic dose or a test without result, not a measured value. Some doses without a T/C left all or most animals alive at the check, yet need not have been tolerated: the source hardly ever lists a survival T/C far under the control, and the zero likely stands for such cases as well. Survivors were counted at the toxicity check, usually on the fifth day, unless a day is given; later deaths do not show. Schedule codes are those of the source, read here as Q, the interval in days (D) or hours (H), X, the number of doses. Some entries hold several experiments; their values stand side by side, smallest first. Marks such as (2×) count equal records among those shown. Some molecules as drawn cover several salts, stereoisomers or complexes of the source; a dose is that of the sample tested. For survival time, the PubChem record calls one and a half times the control and up active, and a quarter to a half above the control has no call in these data; cut-offs in other NCI protocols can differ. Some T/C values carry the count of animals alive at the toxicity check (mostly the fifth day); where none is given, no animal had died by that day.

This assay relates to BDF1 mice, intracerebral B16 melanoma, median survival T/C. The assay is described as follows: NCI In Vivo Anticancer Drug Screen. Data for tumor model B16 Melanoma (intracerebral) in B6D2F1 (BDF1) mice. The conditions noted are these: T/C endpoint: median survival time, higher T/C = longer survival. How it is done:
The antitumor activity of compounds was measured in mice bearing transplantable tumors. Survival or tumor size were measured and the results are expressed as the measurement made in the treated group (T) divided by the measurement made in the vehicle treated control group (C). The tumor model used in this assay is B16 Melanoma (intracerebral) in B6D2F1 (BDF1) mice

The mark [1] stands for this setting: dose: 1.0 mg/kg/injection, schedule: Q01DX005 (ip), vehicle: saline with Tween-80.
The mark [2] stands for this setting: dose: 2.0 mg/kg/injection, schedule: Q01DX005 (ip), vehicle: saline with Tween-80.
Setting [3] is: dose: 4.0 mg/kg/injection, schedule: Q01DX005 (ip), vehicle: saline with Tween-80.
[4] abbreviates: dose: 8.0 mg/kg/injection, schedule: Q01DX009 (ip), vehicle: saline.
Setting [5] is: dose: 32.0 mg/kg/injection, schedule: Q01DX009 (ip), vehicle: saline.
Setting [6] is: dose: 16.0 mg/kg/injection, schedule: Q01DX009 (ip), vehicle: saline with Tween-80.
The mark [7] stands for this setting: dose: 32.0 mg/kg/injection, schedule: Q01DX009 (ip), vehicle: saline with Tween-80.
Where [8] appears, read: dose: 64.0 mg/kg/injection, schedule: Q01DX009 (ip), vehicle: saline with Tween-80.
Setting [9] is: dose: 256.0 mg/kg/injection, schedule: Q01DX005 (ip), vehicle: saline with Tween-80.
Setting [10] is: dose: 8.0 mg/kg/injection, schedule: Q01DX009 (ip), vehicle: saline with Tween-80.

For `NC(=O)N(CCCl)N=O`, the survivor count was 10 of 10 (dose: 8.0 mg/kg/injection, schedule: Q01DX001 (ip), vehicle: saline + alcohol) and 7 of 10 (dose: 16.0 mg/kg/injection, schedule: Q01DX001 (ip), vehicle: saline + alcohol).

`OC(CBr)C(O)C(O)C(O)CBr` (stereo not given): the T/C was 141 % of control (dose: 200.0 mg/kg/injection, schedule: Q01DX009 (ip), vehicle: saline) and 145 % of control (dose: 400.0 mg/kg/injection, schedule: Q01DX009 (ip), vehicle: saline).

Consider `O=C1c2c(O)ccc(O)c2C(=O)c2c(NCCNCCO)ccc(NCCNCCO)c21`, for which the T/C is 109 and 112 % of control [9 of 10 alive] (dose: 1.0 mg/kg/injection, schedule: Q01DX005 (ip), vehicle: saline with Tween-80, evaluated on day 30); 101 % of control (dose: 1.0 mg/kg/injection, schedule: Q01DX005 (ip), vehicle: saline with Tween-80, evaluated on day 60); 109 and 118 % of control [8 of 10 alive] (dose: 2.0 mg/kg/injection, schedule: Q01DX005 (ip), vehicle: saline with Tween-80, evaluated on day 30); 104 % of control [9 of 10 alive] (dose: 2.0 mg/kg/injection, schedule: Q01DX005 (ip), vehicle: saline with Tween-80, evaluated on day 60); 92 [7 of 10 alive] and 108 % of control [9 of 10 alive] (dose: 4.0 mg/kg/injection, schedule: Q01DX005 (ip), vehicle: saline with Tween-80, evaluated on day 30); 89 % of control [9 of 10 alive] (dose: 4.0 mg/kg/injection, schedule: Q01DX005 (ip), vehicle: saline with Tween-80, evaluated on day 60). The survivor count runs as follows: under setting [1], 6 of 10; under setting [2], 7 of 10; under setting [3], 8 of 10; (dose: 4.0 mg/kg/injection, schedule: Q01DX009 (ip), vehicle: saline) 10 of 10; under setting [4], 10 of 10; (dose: 16.0 mg/kg/injection, schedule: Q01DX009 (ip), vehicle: saline) 10 of 10. The survivor count runs as follows: under setting [5], 0 of 10; (dose: 64.0 mg/kg/injection, schedule: Q01DX009 (ip), vehicle: saline) 2 of 10.

On to `O=C1c2ccccc2C(=O)c2c(NCCNCCO)ccc(NCCNCCO)c21`, for which the survivor count is 8 of 10 under setting [1]; 4 of 10 (dose: 1.0 mg/kg/injection, schedule: Q01DX005 (ip), vehicle: saline); 8 of 10 under setting [2]; 8 of 10 (dose: 2.0 mg/kg/injection, schedule: Q01DX005 (ip), vehicle: saline); 6 of 10 and 7 of 10 under setting [3]; 7 of 10 (dose: 4.0 mg/kg/injection, schedule: Q01DX005 (ip), vehicle: saline). Moreover, the survivor count is, setting by setting: under setting [6], 10 of 10; under setting [7], 10 of 10 (2×); under setting [5], 9 of 10; (dose: 64.0 mg/kg/injection, schedule: Q01DX005 (ip), vehicle: Klucel (hydroxypropylcellulose) (HPC)) 9 of 10; under setting [8], 6 of 10 and 9 of 10.

`CC(=O)OC1COC(NC(=O)N(CCCl)N=O)C(OC(C)=O)C1OC(C)=O` (stereo not given): the T/C (dose: 3.0 mg/kg/injection, schedule: Q01DX009 (ip), vehicle: saline) is 125 % of control and the T/C (dose: 6.0 mg/kg/injection, schedule: Q01DX009 (ip), vehicle: saline) is 134 % of control.

For the compound `NC(C/[N+]([O-])=N/O)C(=O)O` (stereo not given), the survivor count is 10 of 10 (dose: 28.12 mg/kg/injection, schedule: Q01DX009 (ip), vehicle: saline); 10 of 10 (dose: 50.0 mg/kg/injection, schedule: Q01DX009 (ip), vehicle: Klucel (hydroxypropylcellulose) (HPC)); 10 of 10 (dose: 56.25 mg/kg/injection, schedule: Q01DX009 (ip), vehicle: saline); 9 of 10 and 10 of 10 (2×) (dose: 100.0 mg/kg/injection, schedule: Q01DX009 (ip), vehicle: Klucel (hydroxypropylcellulose) (HPC)); 9 of 10 (dose: 112.5 mg/kg/injection, schedule: Q01DX009 (ip), vehicle: saline); 6 of 10 and 9 of 10 (dose: 200.0 mg/kg/injection, schedule: Q01DX009 (ip), vehicle: Klucel (hydroxypropylcellulose) (HPC)). Also, the survivor count is 10 of 10 (dose: 225.0 mg/kg/injection, schedule: Q01DX009 (ip), vehicle: saline); 2 of 10 (2×) (dose: 400.0 mg/kg/injection, schedule: Q01DX009 (ip), vehicle: Klucel (hydroxypropylcellulose) (HPC)); 9 of 10 (dose: 450.0 mg/kg/injection, schedule: Q01DX009 (ip), vehicle: saline); 1 of 10 and 2 of 10 (dose: 800.0 mg/kg/injection, schedule: Q01DX009 (ip), vehicle: Klucel (hydroxypropylcellulose) (HPC)); 10 of 10 (dose: 900.0 mg/kg/injection, schedule: Q01DX009 (ip), vehicle: saline).

Turning to `CN(C)/N=N/c1[nH]ncc1C(N)=O`, the T/C (dose: 32.0 mg/kg/injection, schedule: Q01DX005 (ip), vehicle: saline with Tween-80) was 132 % of control [9 of 10 alive]. Further, the survivor count is 10 of 10 under setting [9] and 0 of 10 (dose: 512.0 mg/kg/injection, schedule: Q01DX005 (ip), vehicle: saline with Tween-80).

In the case of `CCCCN(C)N=Nc1ccc([N+](=O)[O-])cc1C(N)=O`, the T/C (dose: 128.0 mg/kg/injection, schedule: Q01DX005 (ip), vehicle: saline with Tween-80) is 132 % of control.

On to `CN(C)N=Nc1ccc2c(c1)N(C)c1ccc(Cl)cc1S2`, for which the T/C (dose: 50.0 mg/kg/injection, schedule: Q01DX009 (ip), vehicle: other) was 125 % of control.

As for `CN(C)N=Nc1ccc([N+](=O)[O-])cc1C(N)=O`, the T/C under setting [9] is 127 % of control [9 of 10 alive].

Consider `COc1cc([C@@H]2c3cc4c(cc3[C@@H](OC3OC5CO[C@@H](c6cccs6)OC5C(O)C3O)[C@H]3COC(=O)[C@H]23)OCO4)cc(OC)c1O` (stereo not given in full), for which the survivor count runs as follows: (dose: 4.0 mg/kg/injection, schedule: Q01DX009 (ip), vehicle: water) 10 of 10; under setting [4], 9 of 10.

For the compound `Cc1[nH]c(=O)[nH]c(=O)c1N(CCF)CCCl`, the survivor count (dose: 64.0 mg/kg/injection, schedule: Q01DX009 (ip), vehicle: water) is recorded as 0 of 6.

As for `COc1cccc2c1C(=O)c1c(O)c3c(c(O)c1C2=O)C[C@@](O)(/C(C)=N/NC(=O)c1ccccc1)C[C@@H]3OC1CC(N)C(O)C(C)O1` (stereo not given in full), the survivor count (dose: 1.0 mg/kg/injection, schedule: Q01DX009 (ip), vehicle: saline) is 10 of 10; the survivor count under setting [10] was 10 of 10; the survivor count under setting [4] is reported as 10 of 10; the survivor count under setting [6] was 10 of 10.

For `CC(=O)OCC1C(=O)OCC1C(=O)N1Cc2cc3ccccc3nc2C1` (stereo not given), the survivor count is on record as 8 of 10 under setting [10]; 5 of 10 under setting [6]; 8 of 10 under setting [7]; 10 of 10 under setting [8]; 5 of 10 (dose: 128.0 mg/kg/injection, schedule: Q01DX009 (ip), vehicle: saline with Tween-80).
